# Assay results published in the supplement of paper PMC8728848.
# Some of the results follow.
# Key:
# Test in all cases: glycan array binding signal (z-score within array); higher = stronger binding
# Details in all cases: glycan notation: IUPAC condensed, linker removed
# Fuc(a1-2)Gal = target: Fuc(a1-2)Gal
# In short: (§1)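 The binding signal is a Z-score computed within each array and averaged over linkers. Arrays of the same protein sequence at different concentrations or buffers were also averaged together. Data originate from 3228 arrays in the Consortium for Functional Glycomics database, kept only where the protein sequence was available.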
# Fuc(a1-2)Gal(b1-3)GalNAc = target: Fuc(a1-2)Gal(b1-3)GalNAc
# In short: as §1
# [1] = target: Fuc(a1-2)Gal(b1-3)GalNAc(a1-3)[Fuc(a1-2)]Gal(b1-4)Glc
# In short: as §1
# [2] = target: Fuc(a1-2)Gal(b1-3)GalNAc(a1-3)[Fuc(a1-2)]Gal(b1-4)GlcNAc
# In short: as §1
# [3] = target: Fuc(a1-2)Gal(b1-3)GalNAc(b1-3)Gal
# In short: as §1
# [4] = target: Fuc(a1-2)Gal(b1-3)GalNAc(b1-3)Gal(a1-4)Gal(b1-4)Glc
# In short: as §1
# [5] = target: Fuc(a1-2)Gal(b1-3)GalNAc(b1-4)[Neu5Ac(a2-3)]Gal(b1-4)Glc
# In short: as §1
# Fuc(a1-2)Gal(b1-3)GlcNAc = target: Fuc(a1-2)Gal(b1-3)GlcNAc
# In short: as §1
# [6] = target: Fuc(a1-2)Gal(b1-3)GlcNAc(b1-2)Man(a1-3)[Fuc(a1-2)Gal(b1-3)GlcNAc(b1-2)Man(a1-6)]Man(b1-4)GlcNAc(b1-4)GlcNAc
# In short: as §1
# [7] = target: Fuc(a1-2)Gal(b1-3)GlcNAc(b1-2)Man(a1-3)[Fuc(a1-2)Gal(b1-3)GlcNAc(b1-2)Man(a1-6)]Man(b1-4)GlcNAc(b1-4)[Fuc(a1-6)]GlcNAc
# In short: as §1
# [8] = target: Fuc(a1-2)Gal(b1-3)GlcNAc(b1-3)Gal(b1-4)Glc
# In short: as §1
# [9] = target: Fuc(a1-2)Gal(b1-3)GlcNAc(b1-3)GalNAc
# In short: as §1
# [10] = target: Fuc(a1-2)Gal(b1-3)GlcNAc(b1-3)[Fuc(a1-2)Gal(b1-3)GlcNAc(b1-6)]GalNAc
# In short: as §1
# [11] = target: Fuc(a1-2)Gal(b1-3)GlcNAc(b1-3)[Fuc(a1-3)[Gal(b1-4)]GlcNAc(b1-6)]Gal(b1-4)Glc
# In short: as §1
# [12] = target: Fuc(a1-2)Gal(b1-3)GlcNAc(b1-3)[Gal(b1-4)GlcNAc(b1-6)]Gal(b1-4)Glc
# In short: as §1
# [13] = target: Fuc(a1-2)Gal(b1-3)GlcNAc(b1-3)[Neu5Ac(a2-6)Gal(b1-4)GlcNAc(b1-6)]Gal(b1-4)Glc
# In short: as §1
# [14] = target: Fuc(a1-2)Gal(b1-3)GlcNAc6S
# In short: as §1
# [15] = target: Fuc(a1-2)Gal(b1-3)[Fuc(a1-4)]GlcNAc
# In short: as §1
# [16] = target: Fuc(a1-2)Gal(b1-3)[Fuc(a1-4)]GlcNAc(b1-2)Man(a1-3)[Fuc(a1-2)Gal(b1-3)[Fuc(a1-4)]GlcNAc(b1-2)Man(a1-3)]Man(b1-4)GlcNAc(b1-4)GlcNAc
# In short: as §1
# [17] = target: Fuc(a1-2)Gal(b1-3)[Fuc(a1-4)]GlcNAc(b1-2)Man(a1-3)[Fuc(a1-2)Gal(b1-3)[Fuc(a1-4)]GlcNAc(b1-2)Man(a1-6)]Man(b1-4)GlcNAc(b1-4)GlcNAc
# In short: as §1
# [18] = target: Fuc(a1-2)Gal(b1-3)[Fuc(a1-4)]GlcNAc(b1-2)Man(a1-3)[Fuc(a1-2)Gal(b1-3)[Fuc(a1-4)]GlcNAc(b1-2)Man(a1-6)]Man(b1-4)GlcNAc(b1-4)[Fuc(a1-6)]GlcNAc(b1-4)[Fuc(a1-6)]GlcNAc
# In short: as §1
# [19] = target: Fuc(a1-2)Gal(b1-3)[Fuc(a1-4)]GlcNAc(b1-3)[Fuc(a1-3)[Gal(b1-4)]GlcNAc(b1-6)]Gal(b1-4)Glc
# In short: as §1
# [20] = target: Fuc(a1-2)Gal(b1-3)[Fuc(a1-4)]GlcNAc(b1-3)[Gal(b1-4)GlcNAc(b1-6)]Gal(b1-4)Glc
# In short: as §1
# [21] = target: Fuc(a1-2)Gal(b1-4)Fuc(a1-3)]GlcNAc(b1-2)Man(a1-3)[Fuc(a1-2)Gal(b1-4)[Fuc(a1-3)]GlcNAc(b1-2)Man(a1-6)]Man(b1-4)GlcNAc(b1-4)GlcNAc
# In short: as §1
# Fuc(a1-2)Gal(b1-4)Glc = target: Fuc(a1-2)Gal(b1-4)Glc
# In short: as §1
# Fuc(a1-2)Gal(b1-4)Glc6S = target: Fuc(a1-2)Gal(b1-4)Glc6S
# In short: as §1
# Fuc(a1-2)Gal(b1-4)GlcNAc = target: Fuc(a1-2)Gal(b1-4)GlcNAc
# In short: as §1
# [22] = target: Fuc(a1-2)Gal(b1-4)GlcNAc(b1-2)Man
# In short: as §1
# [23] = target: Fuc(a1-2)Gal(b1-4)GlcNAc(b1-2)Man(a1-3)[Fuc(a1-2)Gal(b1-4)GlcNAc(b1-2)Man(a1-6)]Man(b1-4)GlcNAc(b1-4)GlcNAc
# In short: as §1
# [24] = target: Fuc(a1-2)Gal(b1-4)GlcNAc(b1-2)Man(a1-3)[Fuc(a1-2)Gal(b1-4)GlcNAc(b1-2)Man(a1-6)]Man(b1-4)GlcNAc(b1-4)[Fuc(a1-6)]GlcNAc
# In short: as §1
# [25] = target: Fuc(a1-2)Gal(b1-4)GlcNAc(b1-2)[Fuc(a1-2)Gal(b1-4)GlcNAc(b1-4)]Man(a1-3)[Fuc(a1-2)Gal(b1-4)GlcNAc(b1-2)Man(a1-6)]Man(b1-4)GlcNAc(b1-4)GlcNAc
# In short: as §1
# [26] = target: Fuc(a1-2)Gal(b1-4)GlcNAc(b1-3)Gal(b1-4)GlcNAc
# In short: as §1
# [27] = target: Fuc(a1-2)Gal(b1-4)GlcNAc(b1-3)Gal(b1-4)GlcNAc(b1-2)Man(a1-3)[Fuc(a1-2)Gal(b1-4)GlcNAc(b1-3)Gal(b1-4)GlcNAc(b1-2)Man(a1-6)]Man(b1-4)GlcNAc(b1-4)GlcNAc
# In short: as §1
# [28] = target: Fuc(a1-2)Gal(b1-4)GlcNAc(b1-3)Gal(b1-4)GlcNAc(b1-3)Gal(b1-4)GlcNAc
# In short: as §1
# [29] = target: Fuc(a1-2)Gal(b1-4)GlcNAc(b1-3)GalNAc
# In short: as §1
# [30] = target: Fuc(a1-2)Gal(b1-4)GlcNAc(b1-3)[Fuc(a1-2)Gal(b1-4)GlcNAc(b1-6)]GalNAc
# In short: as §1
# [31] = target: Fuc(a1-2)Gal(b1-4)GlcNAc(b1-3)[Fuc(a1-3)[Gal(b1-4)]GlcNAc(b1-6)]Gal(b1-4)Glc
# In short: as §1
binder,measurement,setting,value
"CRT-1 (Homo sapiens), P27797 (protein) MLLSVPLLLGLLGLAVAEPAVYFKEQFLDGDGWTSRWIESKHKSDFGKFVLSSGKFYGDEEKDKGLQTSQDARFYALSASFEPFSNKGQTLVVQFTVKHEQNIDCGGGYVKLFPNSLDQTDMHGDSEYNIMFGPDICGPGTKKVHVIFNYKGKNVLINKDIRCKDDEFTHLYTLIVRPDNTYEVKIDNSQVESGSLEDDWDFLPPKKIKDPDASKPEDWDERAKIDDPTDSKPEDWDKPEHIPDPDAKKPEDWDEEMDGEWEPPVIQNPEYKGEWKPRQIDNPDYKGTWIHPEIDNPEYSPDPSIYAYDNFGVLGLDLWQVKSGTIFDNFLITNDEAYAEEFGNETWGVTKAAEKQMKDKQDEEQRLKEEEEDKKRKEEEEAEDKEDDEDKDEDEEDEEDKEEDEEEDVPGQAKDEL",glycan array binding signal (z-score),Fuc(a1-2)Gal,0.561
same,glycan array binding signal (z-score),Fuc(a1-2)Gal(b1-3)GalNAc,-0.346
same,glycan array binding signal (z-score),[1],0.26
same,glycan array binding signal (z-score),[2],-0.392
same,glycan array binding signal (z-score),[3],-0.496
same,glycan array binding signal (z-score),[4],-0.241
same,glycan array binding signal (z-score),[5],-0.178
same,glycan array binding signal (z-score),Fuc(a1-2)Gal(b1-3)GlcNAc,-0.03
same,glycan array binding signal (z-score),[6],0.505
same,glycan array binding signal (z-score),[7],0.015
same,glycan array binding signal (z-score),[8],-0.399
same,glycan array binding signal (z-score),[9],0.011
same,glycan array binding signal (z-score),[10],-0.305
same,glycan array binding signal (z-score),[11],-0.314
same,glycan array binding signal (z-score),[12],0.889
same,glycan array binding signal (z-score),[13],-0.726
same,glycan array binding signal (z-score),[14],0.906
same,glycan array binding signal (z-score),[15],0.199
same,glycan array binding signal (z-score),[16],1.31
same,glycan array binding signal (z-score),[17],0.432
same,glycan array binding signal (z-score),[18],0.15
same,glycan array binding signal (z-score),[19],-0.431
same,glycan array binding signal (z-score),[20],0.054
same,glycan array binding signal (z-score),[21],1.49
same,glycan array binding signal (z-score),Fuc(a1-2)Gal(b1-4)Glc,-0.194
same,glycan array binding signal (z-score),Fuc(a1-2)Gal(b1-4)Glc6S,0.223
same,glycan array binding signal (z-score),Fuc(a1-2)Gal(b1-4)GlcNAc,0.568
same,glycan array binding signal (z-score),[22],-0.238
same,glycan array binding signal (z-score),[23],0.26
same,glycan array binding signal (z-score),[24],0.226
same,glycan array binding signal (z-score),[25],0.144
same,glycan array binding signal (z-score),[26],-0.062
same,glycan array binding signal (z-score),[27],-0.387
same,glycan array binding signal (z-score),[28],0.079
same,glycan array binding signal (z-score),[29],-0.352
same,glycan array binding signal (z-score),[30],-0.099
same,glycan array binding signal (z-score),[31],0.038

# 2 entries from above, set out differently:
binder | measurement | setting | value
CRT-1 (Homo sapiens), P27797 (protein) MLLSVPLLLGLLGLAVAEPAVYFKEQFLDGDGWTSRWIESKHKSDFGKFVLSSGKFYGDEEKDKGLQTSQDARFYALSASFEPFSNKGQTLVVQFTVKHEQNIDCGGGYVKLFPNSLDQTDMHGDSEYNIMFGPDICGPGTKKVHVIFNYKGKNVLINKDIRCKDDEFTHLYTLIVRPDNTYEVKIDNSQVESGSLEDDWDFLPPKKIKDPDASKPEDWDERAKIDDPTDSKPEDWDKPEHIPDPDAKKPEDWDEEMDGEWEPPVIQNPEYKGEWKPRQIDNPDYKGTWIHPEIDNPEYSPDPSIYAYDNFGVLGLDLWQVKSGTIFDNFLITNDEAYAEEFGNETWGVTKAAEKQMKDKQDEEQRLKEEEEDKKRKEEEEAEDKEDDEDKDEDEEDEEDKEEDEEEDVPGQAKDEL | glycan array binding signal (z-score) | [18] | 0.15
same | glycan array binding signal (z-score) | [19] | -0.431
